Some of these results come from one statement about several compounds together.
Test: pharmacokinetic testing of indoximod salts in capsule formulation in rats
Assay type: in vivo
Conditions: capsules, 37 μmol/kg, listed as mesylate, methanesulfonate
Method: Three dose levels were investigated: 37, 185 or 500 μmol/kg.
Capsules were manually filled and the composition uniformity of a representative sample of capsules from each batch was verified by weight and by LC-MS/MS to determine the average indoximod content.
Rats were fasted 16 h prior to dosing to eliminate any confounding food effects, and food was returned 2 h after dosing.

Cn1cc(C[C@@H](N)C(=O)O)c2ccccc21 [indoximod CH3SO3H, (R)-1-carboxy-2-(1-methyl-1H-indol-3-yl)ethan-1-aminium methanesulfonate]
% Increase over indoximod Free Base (AUC): 30-40%
% Increase over indoximod Free Base (Cmax): 30-40%

From patent US20190248739A1 (NEWLINK GENETICS CORPORATION, priority 2015, published 2019)
